According to US20110046120A1, “TREATMENT OF IMPULSE CONTROL DISORDERS” (Mclean Hospital Corporation, priority 2006, published 2011):
At least one structure is not confirmed: it was looked up by name or label, or the drawing left a doubt.

Experiments:
Type in all cases: in vivo, human
[1] = test system: ventral region of the NAc; experiment: fMRI of expectancy versus cocaine infusion effects; conditions: cocaine dependent subjects
[2] = test system: cocaine-dependent individuals; experiment: self-rated subjective responses after intravenous cortisol, cocaine and saline in cocaine dependence; conditions: cocaine 0.2 mg/kg iv bolus
Protocol: To assess cocaine/stress cross-sensitization, 12 cocaine-dependent individuals (age: 39.8±3.5 years) were administered cortisol (0.2 and 0.5 mg/kg), along with cocaine (0.2 mg/kg) and saline via intravenous boluses, in a double-blind, counterbalanced fashion. The individualized description of subjective responses were categorized into four components: craving, high, rush, and low, which were self-rated on a computerized continuous scale of 0 (none) to 3 (extreme) each minute for two minutes prior and 20 minutes following each infusion. Cocaine craving was proactively defined with the subject, clinically as an urge to use the drug and operationally in terms of the action the individual wanted to engage in to get cocaine. The ratings for high (well-being, self-confidence, and sociability), rush (perception of elevated heart rate and sweating, along with sensations of ‘speeding’), and low (dysphoric affect distinct from the high experience diminishment) were subjectively defined and not necessarily associated with a behavioral response or with the planning of physical activity. […] Cocaine elevated measures of craving (p<0.001); high (p<0.02); rush (p<10-4); and low (p=0.05). Saline produced no significant ratings changes.

[3] = test system: reward circuitry; experiment: cardiac gated fMRI BOLD imaging during cocaine infusion; conditions: cocaine HCl 0.6 mg/kg infusion, cocaine-dependent men
Description: We imaged reward circuitry in humans during cocaine infusion, using cardiac gated fMRI BOLD imaging to compensate for brainstem motion. We further used a clustered volume acquisition with sharpened slice profiles to cluster the acquisition of the brainstem volume and thus reduce the effects of imaging noise on cocaine-induced euphoria and craving. Eleven right-handed men (34±7 years old) with the DSM-IV diagnosis of cocaine dependence were studied. During imaging, subjects underwent a randomized double-blind infusion of either cocaine HCl (0.6 mg/kg up to maximum dose of 40 mg) or saline. Subjects were scanned on an Instascan device (1.5 T General Electric Signa; modified by Advanced NMR Systems, Wilmington, Mass.) using a head coil (General Electric). […] Automated shimming with second order shims was performed to improve Bo field homogeneity. Functional scans utilized cardiac gating with an asymmetric spin echo, T2*-weighted CVA (TR=6 RR, three slices per each of the first two RRs; TE=70; offset=−25 ms; 128×64 matrix; thickness=3.12×3.12 mm, through-plane resolution=7 mm; 200 images/slice). […] Seven matched sets of cocaine and saline infusion scans were interpretable after motion-correction. Statistical maps were constructed using Kolmogorov-Smirnov (KS) statistics and thresholded at the corrected p value for brain regions sampled, p<10-5. […]

Structure (SMILES): COC(=O)[C@H]1[C@@H](OC(=O)c2ccccc2)C[C@@H]2CC[C@H]1N2C [cocaine]
- activation of the ventral region of the NAc in response to infusion [1]: did not activate
- craving self-rating ([2]; p<0.001): elevated
- high self-rating ([2]; p<0.02): elevated
- rush self-rating ([2]; p<10-4): elevated
- low self-rating ([2]; p=0.05): elevated
- fMRI activation in the VT [3]: Bilateral activation in the VT
